Source: PubChem BioAssay AID1259308 (NCATS, 2017)
In all, the deposit lists about 59,000 reagents; below is a part drawn at random. About 1,510 of all reagents (2.6%) count as active. 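Calls use total luciferase alone and ignore viability, so some active siRNAs may act by altering cell number.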 The numbers tell different reagents against one gene apart.

- Test: 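Candidate targets for better recombinant protein yield in mammalian cells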 (primary screen)
- Cell system: human HEK293 embryonic kidney cells stably expressing firefly luciferase (HEK-CMV-Luc2-Hygro)
- Knock-down reagent: single siRNA against human genes, 0.8 pmol siRNA per well
- Duration: 72 h
- Measured: 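Luciferase light (ONE-Glo) measured on one replicate plate set and viability (CellTiter-Glo) on the other, scaled to a negative control siRNA, with robust z-scores and luciferase per cell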
- Reading the numbers: total luciferase, z-score and total luciferase, % of control: higher = more reporter protein produced; luciferase per cell, z-score: higher = more reporter output per viable cell; viable cells, % of control: higher = more viable cells
- Rule for the call: 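An siRNA counts as active if its total luciferase robust z-score exceeds 3; genes with two or more such siRNAs out of three were retested with fresh siRNAs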
- Meaning of the calls: active = raised luciferase; inactive = no rise

| gene | reagent no. | total luciferase, z-score | total luciferase, % of control | luciferase per cell, z-score | viable cells, % of control | Outcome |
| --- | --- | --- | --- | --- | --- | --- |
| KLHL1 | 1 | 1.26 | 107 | 1.54 | 79.6 | inactive |
| KLHL1 | 2 | -1.13 | 59.5 | -1.05 | 87.6 | inactive |
| KLHL1 | 3 | -0.418 | 73.6 | -0.253 | 87.9 | inactive |
| NCAN | 1 | -1.13 | 59.5 | -0.421 | 74.3 | inactive |
| NCAN | 2 | -0.55 | 70.9 | -0.395 | 88 | inactive |
| NCAN | 3 | 3.63 | 154 | 3.02 | 77.6 | active |
| CST9LP1 | 1 | -1.41 | 53.9 | -1.28 | 84.4 | inactive |
| CST9LP1 | 2 | 0.482 | 91.5 | 0.24 | 96 | inactive |
| CST9LP1 | 3 | 0.0531 | 82.9 | 0.642 | 78.3 | inactive |
| ANXA1 | 1 | 0.671 | 95.2 | 0.715 | 88.2 | inactive |
| ANXA1 | 2 | 0.518 | 92.2 | 0.799 | 83.5 | inactive |
| ANXA1 | 3 | -0.531 | 71.3 | -1.03 | 105 | inactive |
| PGGHG | 1 | 3.08 | 143 | 2.3 | 87.2 | active |
| PGGHG | 2 | 1.18 | 105 | 1.12 | 87.7 | inactive |
| PGGHG | 3 | -0.929 | 63.4 | -0.252 | 75.7 | inactive |
| LRP1 | 1 | -0.173 | 78.4 | 0.047 | 86.6 | inactive |
| LRP1 | 2 | -0.752 | 66.9 | 1.59 | 49.3 | inactive |
| LRP1 | 3 | -0.984 | 62.3 | 0.525 | 60.6 | inactive |
| HRCT1 | 1 | 0.196 | 85.8 | -0.131 | 99.2 | inactive |
| HRCT1 | 2 | 0.197 | 85.8 | 0.597 | 81.9 | inactive |
| HRCT1 | 3 | 0.085 | 83.6 | 0.062 | 91.9 | inactive |
| LOC728688 | 1 | -0.929 | 63.4 | -1.16 | 96.2 | inactive |
| LOC728688 | 2 | -2.07 | 40.8 | -1.73 | 71.9 | inactive |
| LOC728688 | 3 | 1.6 | 114 | 2.4 | 67.4 | inactive |

2 entries from above, reformatted.
{"gene": "LRP1", "reagent no.": 1, "total luciferase, z-score": -0.173, "total luciferase, % of control": 78.4, "luciferase per cell, z-score": 0.047, "viable cells, % of control": 86.6, "Outcome": "inactive"}
{"gene": "LRP1", "reagent no.": 2, "total luciferase, z-score": -0.752, "total luciferase, % of control": 66.9, "luciferase per cell, z-score": 1.59, "viable cells, % of control": 49.3, "Outcome": "inactive"}
